Measured values taken from PMC13440570.
Results are given in words; binding and its absence hold for the method and conditions named. For part of these data: Binding seen in cells or lysates may run through a third protein. Tags and fused reporters may be left off the sequences shown.

T1: SDS^331–578 (yeast two-hybrid fusion) (Arabidopsis thaliana) (UniProt Q1PFW3)
T1 sequence: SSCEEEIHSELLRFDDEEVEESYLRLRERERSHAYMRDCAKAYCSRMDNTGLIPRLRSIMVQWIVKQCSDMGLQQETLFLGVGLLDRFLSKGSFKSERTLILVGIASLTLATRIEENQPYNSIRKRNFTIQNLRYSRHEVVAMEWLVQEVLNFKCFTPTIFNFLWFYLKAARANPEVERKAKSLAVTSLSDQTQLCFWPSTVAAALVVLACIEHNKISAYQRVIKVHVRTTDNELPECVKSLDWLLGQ

T2: DMC1-BD (yeast two-hybrid fusion) (Arabidopsis thaliana) (UniProt Q39009)
T2 sequence: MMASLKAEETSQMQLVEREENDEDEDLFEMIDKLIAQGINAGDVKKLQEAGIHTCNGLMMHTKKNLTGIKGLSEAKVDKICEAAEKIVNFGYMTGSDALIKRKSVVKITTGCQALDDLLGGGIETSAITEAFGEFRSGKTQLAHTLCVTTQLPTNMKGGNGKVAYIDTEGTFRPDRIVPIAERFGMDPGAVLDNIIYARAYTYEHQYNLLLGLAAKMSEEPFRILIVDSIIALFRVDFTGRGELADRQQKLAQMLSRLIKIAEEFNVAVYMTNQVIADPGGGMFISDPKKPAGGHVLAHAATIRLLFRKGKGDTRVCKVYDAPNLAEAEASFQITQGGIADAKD

T3: SDS^1–330 (yeast two-hybrid fusion) (Arabidopsis thaliana) (UniProt Q1PFW3)
T3 sequence: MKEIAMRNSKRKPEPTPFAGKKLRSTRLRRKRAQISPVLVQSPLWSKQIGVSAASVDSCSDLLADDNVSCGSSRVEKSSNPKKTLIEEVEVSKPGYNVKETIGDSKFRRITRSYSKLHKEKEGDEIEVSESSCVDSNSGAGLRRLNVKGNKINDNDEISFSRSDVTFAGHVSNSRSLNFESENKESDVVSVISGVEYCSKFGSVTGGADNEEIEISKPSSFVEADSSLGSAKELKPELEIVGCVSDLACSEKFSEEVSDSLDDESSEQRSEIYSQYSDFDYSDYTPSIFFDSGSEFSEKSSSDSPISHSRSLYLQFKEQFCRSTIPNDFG

T4: DMC1 (BiFC fusion) (Arabidopsis thaliana) (UniProt Q39009)
T4 sequence: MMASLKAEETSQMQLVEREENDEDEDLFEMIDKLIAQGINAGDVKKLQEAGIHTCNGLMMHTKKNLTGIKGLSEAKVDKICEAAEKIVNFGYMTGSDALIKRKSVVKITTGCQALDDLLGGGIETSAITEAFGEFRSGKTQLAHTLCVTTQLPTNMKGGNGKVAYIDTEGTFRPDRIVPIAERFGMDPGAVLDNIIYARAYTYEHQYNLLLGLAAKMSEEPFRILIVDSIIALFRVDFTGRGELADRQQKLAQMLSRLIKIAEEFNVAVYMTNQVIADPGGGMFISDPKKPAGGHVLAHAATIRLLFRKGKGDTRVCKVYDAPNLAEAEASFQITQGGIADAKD

T5: GST-SDS^FL (Arabidopsis thaliana) (UniProt Q1PFW3)
T5 sequence: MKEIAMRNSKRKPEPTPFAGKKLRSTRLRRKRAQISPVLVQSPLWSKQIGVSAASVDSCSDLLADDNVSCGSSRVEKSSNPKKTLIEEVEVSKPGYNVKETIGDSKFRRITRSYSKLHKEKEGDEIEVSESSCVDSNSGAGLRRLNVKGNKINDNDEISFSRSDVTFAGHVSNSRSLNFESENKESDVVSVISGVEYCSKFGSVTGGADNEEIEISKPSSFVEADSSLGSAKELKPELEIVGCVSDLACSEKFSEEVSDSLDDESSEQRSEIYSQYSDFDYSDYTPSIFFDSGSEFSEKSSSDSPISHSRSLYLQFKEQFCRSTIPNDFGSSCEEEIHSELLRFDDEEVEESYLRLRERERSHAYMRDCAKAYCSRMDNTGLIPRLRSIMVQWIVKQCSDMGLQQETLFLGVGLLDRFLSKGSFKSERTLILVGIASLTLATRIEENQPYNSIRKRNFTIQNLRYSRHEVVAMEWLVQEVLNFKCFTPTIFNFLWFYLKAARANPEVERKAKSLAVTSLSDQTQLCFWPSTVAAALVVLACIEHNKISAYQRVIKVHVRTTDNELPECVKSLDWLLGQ


How the values were obtained:
[1] = biological target: T1, SDS^331–578 (yeast two-hybrid fusion) (Arabidopsis thaliana); assay: two-hybrid; S. cerevisiae AH109, pGADT7-GW and pGBKT7-GW fusions; growth on SD -Leu/-Trp/-His and -Leu/-Trp/-His/-Ade, 28 °C for 3 d
[2] = biological target: T2, DMC1-BD (yeast two-hybrid fusion) (Arabidopsis thaliana); assay: as above
[3] = biological target: T3, SDS^1–330 (yeast two-hybrid fusion) (Arabidopsis thaliana); assay: as above
[4] = biological target: T4, DMC1 (BiFC fusion) (Arabidopsis thaliana); assay: split reporter; BiFC of ASY1 with DMC1 (Figure S2); system and constructs not given
[5] = biological target: T5, GST-SDS^FL (Arabidopsis thaliana); assay: pull-down; in vitro pull-down of GST- and HisMBP-tagged proteins (Figure S8); who was held is not told

Row | binding [1] | binding [2] | binding [3] | binding [4] | binding [5] | Binder
1 | no binding | – | no binding | – | – | ASY1^301–596 (yeast two-hybrid fusion) (domain or fragment, UniProt F4HRV8 301-596) NEQQLARVKDWINSRHLDTLELTDILANFPDISIVLSEEIMDQLVTEGVLSKTGKDMYIKKRDKTPESEFTFVKEEADGQISPGKSVAPEDYLYMKALYHSLPMKYVTITKLHNMLDGEANQTAVRKLMDRMTQEGYVEASSNRRLGKRVIHSSLTEKKLNEVRKVLATDDMDVDVTETINKTNGPDAKVTADVSTCGGIHSIGSDFTRTKGRSGGMQQNGSVLSEQTISKAGNTPISNKAQPAASRESFAVHGGAVKEAETVNCSQASQDRRGRKTSMVREPILQYSKRQKSQAN
2 | – | – | – | – | no binding | HisMBP-ASY1^1–300 (domain or fragment, UniProt F4HRV8 1-300) MVMAQKLKEAEITEQDSLLLTRNLLRIAIFNISYIRGLFPEKYFNDKSVPALDMKIKKLMPMDAESRRLIDWMEKGVYDALQRKYLKTLMFSICETVDGPMIEEYSFSFSYSDSDSQDVMMNINRTGNKKNGGIFNSTADITPNQMRSSACKMVRTLVQLMRTLDKMPDERTIVMKLLYYDDVTPPDYEPPFFRGCTEDEAQYVWTKNPLRMEIGNVNSKHLVLTLKVKSVLDPCEDENDDMQDDGKSIGPDSVHDDQPSDSDSEISQTQENQFIVAPVEKQDDDDGEVDEDDNTQDPAE

Further lines, the binder ahead of its results:

Row | Binder | binding [1] | binding [2] | binding [3] | binding [4] | binding [5]
3 | ASY1-AD (full-length …1, yeast two-hybrid fusion) (protein, UniProt F4HRV8 1-596) MVMAQKLKEAEITEQDSLLLTRNLLRIAIFNISYIRGLFPEKYFNDKSVPALDMKIKKLMPMDAESRRLIDWMEKGVYDALQRKYLKTLMFSICETVDGPMIEEYSFSFSYSDSDSQDVMMNINRTGNKKNGGIFNSTADITPNQMRSSACKMVRTLVQLMRTLDKMPDERTIVMKLLYYDDVTPPDYEPPFFRGCTEDEAQYVWTKNPLRMEIGNVNSKHLVLTLKVKSVLDPCEDENDDMQDDGKSIGPDSVHDDQPSDSDSEISQTQENQFIVAPVEKQDDDDGEVDEDDNTQDPAENEQQLARVKDWINSRHLDTLELTDILANFPDISIVLSEEIMDQLVTEGVLSKTGKDMYIKKRDKTPESEFTFVKEEADGQISPGKSVAPEDYLYMKALYHSLPMKYVTITKLHNMLDGEANQTAVRKLMDRMTQEGYVEASSNRRLGKRVIHSSLTEKKLNEVRKVLATDDMDVDVTETINKTNGPDAKVTADVSTCGGIHSIGSDFTRTKGRSGGMQQNGSVLSEQTISKAGNTPISNKAQPAASRESFAVHGGAVKEAETVNCSQASQDRRGRKTSMVREPILQYSKRQKSQAN | no binding | no binding | no binding | – | –
4 | ASY1 (BiFC fusion used in the test with DMC1) (protein, UniProt F4HRV8 1-596) MVMAQKLKEAEITEQDSLLLTRNLLRIAIFNISYIRGLFPEKYFNDKSVPALDMKIKKLMPMDAESRRLIDWMEKGVYDALQRKYLKTLMFSICETVDGPMIEEYSFSFSYSDSDSQDVMMNINRTGNKKNGGIFNSTADITPNQMRSSACKMVRTLVQLMRTLDKMPDERTIVMKLLYYDDVTPPDYEPPFFRGCTEDEAQYVWTKNPLRMEIGNVNSKHLVLTLKVKSVLDPCEDENDDMQDDGKSIGPDSVHDDQPSDSDSEISQTQENQFIVAPVEKQDDDDGEVDEDDNTQDPAENEQQLARVKDWINSRHLDTLELTDILANFPDISIVLSEEIMDQLVTEGVLSKTGKDMYIKKRDKTPESEFTFVKEEADGQISPGKSVAPEDYLYMKALYHSLPMKYVTITKLHNMLDGEANQTAVRKLMDRMTQEGYVEASSNRRLGKRVIHSSLTEKKLNEVRKVLATDDMDVDVTETINKTNGPDAKVTADVSTCGGIHSIGSDFTRTKGRSGGMQQNGSVLSEQTISKAGNTPISNKAQPAASRESFAVHGGAVKEAETVNCSQASQDRRGRKTSMVREPILQYSKRQKSQAN | – | – | – | no binding | –
5 | ASY1^1–300 (yeast two-hybrid fusion) (domain or fragment, UniProt F4HRV8 1-300) MVMAQKLKEAEITEQDSLLLTRNLLRIAIFNISYIRGLFPEKYFNDKSVPALDMKIKKLMPMDAESRRLIDWMEKGVYDALQRKYLKTLMFSICETVDGPMIEEYSFSFSYSDSDSQDVMMNINRTGNKKNGGIFNSTADITPNQMRSSACKMVRTLVQLMRTLDKMPDERTIVMKLLYYDDVTPPDYEPPFFRGCTEDEAQYVWTKNPLRMEIGNVNSKHLVLTLKVKSVLDPCEDENDDMQDDGKSIGPDSVHDDQPSDSDSEISQTQENQFIVAPVEKQDDDDGEVDEDDNTQDPAE | no binding | – | no binding | – | –
